{"sequences": {"note": "Protein sequences, listed by entry. Tags and fused reporters are not part of them. Lines headed by an entry give the natural chain unless they say otherwise; changes in a name come on top.", "UniProt P43489": "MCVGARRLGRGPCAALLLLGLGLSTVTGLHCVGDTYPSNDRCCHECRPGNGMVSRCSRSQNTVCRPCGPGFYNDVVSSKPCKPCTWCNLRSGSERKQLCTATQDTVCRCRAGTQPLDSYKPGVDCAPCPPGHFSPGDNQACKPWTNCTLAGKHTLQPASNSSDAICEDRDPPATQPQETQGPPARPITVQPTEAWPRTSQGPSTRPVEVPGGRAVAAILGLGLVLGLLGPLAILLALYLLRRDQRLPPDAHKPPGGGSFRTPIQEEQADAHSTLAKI"}, "source": "patent US20220251204A1", "binders": {"B1": {"name": "OX40 IgG4P (antibody, V domains shown)", "VH": "QVQLQESGPGLVKPSQTLSLTCAVYGGSFSSGYWNWIRKHPGKGLEYIGYISYNGITYHNPSLKSRITINRDTSKNQYSLQLNSVTPEDTAVYYCARYKYDYDGGHAMDYWGQGTLVTVSS", "VL": "DIQMTQSPSSLSASVGDRVTITCRASQDISNYLNWYQQKPGKAPKLLIYYTSKLHSGVPSRFSGSGSGTDYTLTISSLQPEDFATYYCQQGSALPWTFGQGTKVEIK"}}, "key": {"[1]": {"target": "human OX40 expressed on cells (human) (UniProt P43489)", "experiment": "flow cytometry (HyperCyt)"}, "[2]": {"target": "human OX40 expressed on cells (human) (UniProt P43489)", "experiment": "flow cytometry (HyperCyt, FL4-H median) on Jurkat OX40 cells, one condition, concentration not given"}}, "note": "No constants are given. Whether binding was seen depends on the method and setting. Some results given as binding are weak or reduced against the parent protein; the word gives no strength."}
{"binder": "B1", "values": [{"measurement": "binding", "setting": "[1]", "value": "binds"}, {"measurement": "binding", "setting": "[2]", "value": "binds"}]}
